Measured values reported in patent US10654917B2, “Antibody molecules and peptide delivery systems for use in alzheimer's disease and related disorders” (TECHNOPHAGE, INVESTIGAÇĀO E DESENVOLVIMENTO EM …, priority 2015, dated 2020).

Assay: Membrane dipole potential with di-8-ANEPPS in LUVs
Assay type: physicochemical
Settings: LUVs of different lipidic compositions

Row | Substance | disturbance of membrane dipole potential (differential spectrum, di-8-ANEPPS)
1 | AGILKRW (Dengue virus 2; /note=“#PepH3 (PEP+)”) | alterations in the spectrum
2 | KLFMALVAFLRFLT [PepH2] | high interaction with the different membrane models tested
3 | VQQLTKRFSL (Dengue virus 2; /note=“#PepH1”) | no alteration in the differential spectrum
